# Percent effect of library compounds

From ChEMBL document CHEMBL3988442, “University of Dundee, Small-Polar-MMV Screening Library” (2021).

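Whole-parasite assay of Trypanosoma brucei over 72 hours; the read-out is not stated. Concentration: 30 µM. Direction is inferred from retests: higher values go with stronger inhibition. Values scatter widely below zero; nearly all retest evidence comes from the higher of the two concentrations used. Size under these conditions: about 64,000 compounds, about 940 of them at 50% or above in at least one test.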

Results are given as percent effect.
How 0% and 100% were set is not recorded. Most values in the screen are low, and negative values occur.
Compounds were drawn at random from those tested, without regard to their results.

Result for COc1cc(NC(=O)c2nc3ccccc3n(C)c2=O)cc(OC)c1 was -17.64%.
Result for [H][C@@]12CCN(C(=O)c3cnccn3)C[C@@]1([H])O[C@H](C)C2 was -42.3%.
Result for COc1ccc(C(N)c2cccc(S(C)(=O)=O)c2)cc1 (stereo not shown) was -6.511%.
Result for Cc1ccc(Cn2c(=O)[nH]c3cccnc3c2=O)cc1 was -0.8638%.
Result for [H][C@@]12CN(Cc3ccccc3C)CC[C@]1([H])N(C(C)=O)C[C@H]2c1ccsc1 was -10.13%.
Result for CCOCCCNC(=O)c1cc(C(C)C)nc(N2CCCCCC2)n1 was -23.06%.
Result for Cc1cc(C(=O)Nc2ccc(-c3nnc(N(C)C)o3)cc2)oc1C was -25.16%.
Result for Cc1ccc(N(C)S(=O)(=O)c2cc(C(=O)O)cs2)cc1 was -13.08%.
Result for CN(C)c1ncccc1C(=O)N1CCCN(c2cccnn2)CC1 was -5.77%.
Result for Cc1ccc(CN2CCN(Cc3ccncc3)CC2=O)cc1 was -5.602%.
Result for CC(O)CN1CCC(CN(C)CC(=O)NC2CCOCC2)CC1 (stereo not shown) was -5.684%.
Result for O=C(NCC1CCOC1)c1cc(-c2ccc(Cl)cc2)n[nH]1 (stereo not shown) was 0.06649%.
Result for CN1CCC(c2cncc(Cl)n2)CC1 was -6.605%.
Result for CCN(CC)C(=O)c1ccn(COc2c(Cl)cccc2Cl)n1 was -5.684%.
Result for O=C(c1cn(-c2ccccc2Cl)nn1)N1CCN(CCO)CC1 was 2.729%.
Result for O=S(=O)(c1ccccc1)N1CCOC(Cn2ccnc2)C1 (stereo not shown) was -26.18%.
Result for Cc1noc(Cl)c1CC(=O)NCC(C)(O)c1ccc(F)cc1F (stereo not shown) was -46.07%.
Result for COCCC(Cc1cccc(Br)c1)C(=O)N(C)C (stereo not shown) was -13.4%.
Result for COc1ccc(OC)c(CNC2CCCc3nc(N(C)C)ncc32)c1 (stereo not shown) was -7.564%.
Result for Cc1cc(-c2cnc(N3CCCC3)nc2-c2ccc(C)s2)on1 was -7.899%.
Result for CCc1ncc(C(=O)NCCNc2ccncc2)s1 was -37.44%.
Result for CCCc1ccc(S(=O)(=O)Nc2ccc(=O)n(C)c2)cc1 was -6.867%.
Result for O=C(CCCn1cncn1)NC1(c2cccc(Br)c2)CC1 was -22.75%.
Result for COc1cc(CCC(=O)N2CCC(c3cc4ncc(C)nc4[nH]3)C2)on1 (stereo not shown) was 31.83%.
Result for CC(=O)c1c(N(C)C)ccnc1C(F)(F)F was -2.98%.
Result for Cc1cc(CN2CCN(C(=O)NC(C)c3cccs3)CC2)on1 (stereo not shown) was -9.992%.
Result for COc1ccc(COCC(O)CNC(=O)c2ccc(C)c(F)c2)cc1 (stereo not shown) was -4.604%.
Result for CCn1cnnc1CNC(=O)NCC(C)(CC)N1CCOCC1 (stereo not shown) was -10.09%.
Result for O=C(O)C(F)(F)F.O=C(O)C(F)(F)F.[H][C@@]12CN(Cc3ccc(F)cc3)C[C@]1([H])OCCN2c1ccc(C)nn1 was 22.21%.
Result for O=C(O)CC(O)(CC(=O)O)C(=O)O.c1ccc([C@@H]2CN(Cc3cccnc3)C[C@H]2c2cc[nH]n2)cc1 was 1.836%.
Result for OC1=C2C(=Nc3n[nH]c(O)c3C2c2ccccc2Cl)CCC1 (stereo not shown) was -2.268%.
Result for COCC1CN(Cc2ccncc2)Cc2nnn(CC3CC3)c21.O=C(O)C(F)(F)F.O=C(O)C(F)(F)F (stereo not shown) was -13.63%.

Repeated from the top, 3 entries:

{"smiles": "COc1cc(NC(=O)c2nc3ccccc3n(C)c2=O)cc(OC)c1", "percent effect": -17.64}
{"smiles": "[H][C@@]12CCN(C(=O)c3cnccn3)C[C@@]1([H])O[C@H](C)C2", "percent effect": -42.3}
{"smiles": "COc1ccc(C(N)c2cccc(S(C)(=O)=O)c2)cc1", "stereo": "stereo not shown", "percent effect": -6.511}